Screen size: about 220,000 compounds; about 770 (0.35%) were called active. Only results without a clear call are listed here; the source files them as inconclusive. Cut-off read from the data, not from the text of the source: active = binding response below about 49% or above about 150%; inconclusive = no clear call, values can overlap the other calls; inactive = in between. Some salts or complexes appear as unconnected parts, following the source record.
Target: Guanine nucleotide-binding protein G(o) subunit alpha (Homo sapiens) (UniProt P09471)
Assay: RGS7-Galphao binding modulators, primary screen, biochemical, multiplexed bead flow cytometry (AID 1439);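 note: fluorescent Galphao held in activated GDP-AlF4 state binding bead-coupled RGS7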
Conditions: at 10 µM, actives lie on both sides

Chains of the proteins cited; added tags and fusions are not shown.
UniProt P09471, whole entry: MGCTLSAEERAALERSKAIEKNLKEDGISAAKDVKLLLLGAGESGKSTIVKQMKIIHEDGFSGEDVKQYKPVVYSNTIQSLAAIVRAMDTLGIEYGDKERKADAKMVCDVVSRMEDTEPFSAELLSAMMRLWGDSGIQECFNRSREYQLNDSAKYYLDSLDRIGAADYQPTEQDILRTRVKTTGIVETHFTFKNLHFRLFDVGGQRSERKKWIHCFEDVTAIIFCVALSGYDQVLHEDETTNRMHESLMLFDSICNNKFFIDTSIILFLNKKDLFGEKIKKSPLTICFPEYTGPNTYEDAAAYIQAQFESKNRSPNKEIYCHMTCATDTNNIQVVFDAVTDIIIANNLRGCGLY

Compound | binding response (% of control)
O=C(OCCCN1CCCC1)C(O)(c1ccccc1)C1CCCCC1 (stereo not drawn) | inconclusive: -62%
CCc1ccc(OP(C)(=O)Nc2cccnc2)cc1 (stereo not drawn) | inconclusive: 77.8%
COc1ccccc1OP(C)(=O)Nc1ccc(Br)cc1 (stereo not drawn) | inconclusive: 86.5%
CP(=O)(Nc1ccc(Cl)cc1Cl)Oc1ccccc1 (stereo not drawn) | inconclusive: 70.8%
CP(=O)(OCCOc1ccccc1)OCCOc1ccccc1 | inconclusive: 120%
CCCCCOc1ccc(NP(C)(=O)Oc2ccc(Cl)cc2Cl)cc1 (stereo not drawn) | inconclusive: 57.6%
O=C(OC1CN2CCC1CC2)c1ccc([N+](=O)[O-])cc1 (stereo not drawn) | inconclusive: 44.3%
COc1ccc2c(c1O)-c1c(O)c(OC)cc3c1[C@H](C2)[N+](C)(C)CC3.O=[N+]([O-])c1cc([N+](=O)[O-])c([O-])c([N+](=O)[O-])c1[O-] | inconclusive: 104%
CP(=O)(Nc1ccc(SC(F)(F)F)cc1)Oc1ccc(F)cc1 (stereo not drawn) | inconclusive: 93.2%
O=[N+]([O-])c1ccc(OP2(=O)COCCO2)cc1 (stereo not drawn) | inconclusive: 67.1%
O=[N+]([O-])c1cc([N+](=O)[O-])c(NCC2CCS(=O)(=O)C2)c([N+](=O)[O-])c1 (stereo not drawn) | inconclusive: 95.1%
Cc1cc(-c2cccc3ccccc23)c(C)cn1.O=[N+]([O-])c1cc([N+](=O)[O-])c(O)c([N+](=O)[O-])c1 | inconclusive: 76.8%
CCOC(=O)C(CC)C1=NC(C)(C)Cc2ccccc21.O=[N+]([O-])c1cc([N+](=O)[O-])c(O)c([N+](=O)[O-])c1 (stereo not drawn) | inconclusive: 113%
O=[N+]([O-])c1cc([N+](=O)[O-])c(Nc2nnnn2CCO)c([N+](=O)[O-])c1 | inconclusive: 117%
CP(=O)(Nc1cccc(Br)c1)Oc1ccccc1 (stereo not drawn) | inconclusive: 94.7%
COc1ccccc1OP(C)(=O)Nc1cccc(Br)c1 (stereo not drawn) | inconclusive: 91.4%
O=C(O)c1cccc(Nc2c([N+](=O)[O-])cc([N+](=O)[O-])cc2[N+](=O)[O-])c1 | inconclusive: 124%
Cc1cc(C)cc(OP(C)(N)=O)c1 (stereo not drawn) | inconclusive: 93.3%
O=[N+]([O-])c1ccc2c(c1)C=Nc1ccccc1O2 | inconclusive: 150%
Cc1cccc(C)c1OP(C)(N)=O (stereo not drawn) | inconclusive: 117%
CP(=O)(Oc1ccccc1)OC(c1ccccc1)C(F)(F)F (stereo not drawn) | inconclusive: 110%
CP(=O)(Nc1ccc(SC(F)(F)F)cc1)Oc1ccc(Cl)cc1 (stereo not drawn) | inconclusive: 107%
CCc1ccc(OP(C)(=O)N2CCN(c3ccc([N+](=O)[O-])cc3)CC2)cc1 (stereo not drawn) | inconclusive: 95.3%

Reference: PubChem BioAssay AID1439 (NMMLSC, 2008)
